Here are results for one substance from paper PMC5818423.

The target in the assay is CD26-YFP (human CD26 / dipeptidyl peptidase IV fused to YFP on the C-terminal end) (human) (UniProt P27487). Briefly: FRET or BRET; NanoBRET between two HEK-293T cell populations: cells with the Nluc donor mixed with cells with the YFP acceptor, 10 min in HBSS without shaking, without or with bovine ADA (0.01-10 ug/ml), bovine albumin (1 ug/ml) or ADA plus mAb TA5.9-CC1-4C8 (0.3 ug/ml); 5 uM coelenterazine H; pair: the two membrane proteins.

No constants are given. Whether binding was seen depends on the method and setting. In cells and extracts the contact can be indirect.

As for “NMDAR1A-Nluc (human NMDA receptor subunit NMDAR1A fused to NanoLuc on the N-terminal end) (from UniProt Q05586 19-938)”, the binding result is listed as “no binding (tested: without or with 1 ug/ml bovine ADA)”.
